According to paper PMC5834252, “Targeting scFv-Fc-scTRAIL fusion proteins to tumor cells” (Oncotarget, 2018):
Results are given in words; binding and its absence hold for the method and conditions named. For part of these data: Where a sequence is shown, tags or fusion partners need not be part of it.

Sequences of proteins named here, by UniProt entry; tags and fusion partners are left off. Residues count along the entry.
UniProt P21860, residues 20-643: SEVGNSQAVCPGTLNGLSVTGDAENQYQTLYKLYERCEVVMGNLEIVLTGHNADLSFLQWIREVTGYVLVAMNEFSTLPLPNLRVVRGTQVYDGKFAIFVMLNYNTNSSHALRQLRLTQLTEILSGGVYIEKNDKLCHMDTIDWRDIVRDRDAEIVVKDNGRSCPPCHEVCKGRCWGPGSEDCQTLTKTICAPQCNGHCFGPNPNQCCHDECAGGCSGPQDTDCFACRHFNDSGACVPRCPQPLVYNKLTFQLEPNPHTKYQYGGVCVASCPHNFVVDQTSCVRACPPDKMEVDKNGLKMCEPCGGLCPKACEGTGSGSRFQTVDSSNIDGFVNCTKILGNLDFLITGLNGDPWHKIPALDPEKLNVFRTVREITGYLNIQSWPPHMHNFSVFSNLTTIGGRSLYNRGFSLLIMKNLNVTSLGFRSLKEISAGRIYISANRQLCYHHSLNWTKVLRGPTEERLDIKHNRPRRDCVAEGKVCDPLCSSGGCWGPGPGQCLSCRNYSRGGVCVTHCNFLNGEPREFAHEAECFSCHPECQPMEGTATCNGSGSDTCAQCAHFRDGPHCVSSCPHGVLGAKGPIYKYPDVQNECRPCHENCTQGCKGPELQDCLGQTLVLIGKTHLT

Experiments:
[1] = target: HER2-Fc (human) (UniProt P04626); test: ELISA; receptor-Fc fusion proteins or sEpCAM coated (300 ng/well); 20 nM protein (scTRAIL units); detected with anti-FLAG-HRP or anti-human IgG (Fc specific)-POD; relative OD450; both purified
[2] = target: HER3-Fc (human) (UniProt P21860); test: as above
[3] = target: T1, moDcTRAIL-R1 (Fc fusion protein) (mouse) (UniProt Q9ER63); test: ELISA; Fc fusion proteins of human and mouse TRAIL receptors coated (200 ng/well); 40 nM scTRAIL units; detected with anti-FLAG-HRP; relative OD450; both purified
T1 sequence: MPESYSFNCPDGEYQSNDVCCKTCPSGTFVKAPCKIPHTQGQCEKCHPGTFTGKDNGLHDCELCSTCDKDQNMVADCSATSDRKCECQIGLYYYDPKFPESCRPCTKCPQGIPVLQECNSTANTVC

binding [3]: no binding (tested: 40 nM scTRAIL units)
B1: Fc-scTRAIL (Fc fusion, human)
chain: GPQRVAAHITGTRGRSNTLSSPNSKNEKALGRKINSWESSRSGHSFLSNLHLRNGELVIHEKGFYYIYSQTYFRFQEEIKENTKNDKQMVQYIYKYTSYPDPILLMKSARNSCWSKDAEYGLYSIYQGGIFELKENDRIFVSVTNEHLIDMDHEASFFGAFLVGGGPQRVAAHITGTRGRSNTLSSPNSKNEKALGRKINSWESSRSGHSFLSNLHLRNGELVIHEKGFYYIYSQTYFRFQEEIKENTKNDKQMVQYIYKYTSYPDPILLMKSARNSCWSKDAEYGLYSIYQGGIFELKENDRIFVSVTNEHLIDMDHEASFFGAFLVGGGPQRVAAHITGTRGRSNTLSSPNSKNEKALGRKINSWESSRSGHSFLSNLHLRNGELVIHEKGFYYIYSQTYFRFQEEIKENTKNDKQMVQYIYKYTSYPDPILLMKSARNSCWSKDAEYGLYSIYQGGIFELKENDRIFVSVTNEHLIDMDHEASFFGAFLVG
notes: human TRAIL, first protomer of single-chain TRAIL (scTRAIL), amino acids 118-281; single glycine residue as linker between the TRAIL protomers; human TRAIL, second protomer of scTRAIL, amino acids 118-281; human TRAIL, third protomer of scTRAIL, amino acids 118-281; scTRAIL is fused to the C-terminus of the human gamma1 Fc; disulfide-linked dimer (hexavalent TRAIL); also called non-targeted …
binding [1]: no binding (tested: 20 nM protein (scTRAIL units))
binding [2]: no binding (tested: 20 nM protein (scTRAIL units))
